Several values for one entry are separate records, joined by “and”; a condition that tells them apart may be missing. Identical values can stand only once. Like-named read-outs stand apart in the source and are kept apart here.
Experiments:
M2 MspA [1] = system: M2 MspA; parameters: species or system Mycobacterium smegmatis; settings: for amplitude S.D., mean: […] KCl/1.0M CaCl2, +100 mV; for amplitude S.D., mean / current blockade ratio (ΔI/I0), mean / current blockade ratio (ΔI/I0), Step 1, mean / current blockade ratio (ΔI/I0), Step 2, mean: N=3; for current blockade ratio (ΔI/I0), mean: […] KCl/1.0M CaCl2, pH 7.0, +100 mV
M2 MspA [2] = settings: 10-fold cross-validation
[3] = FIG. 80j: lysozyme + holo-myoglobin + ACTR/NCBD complex + apo-myoglobin
[4] = +100 mV, listed as APO-MYOGLOBIN
[5] = +100 mV, independent measurements 1-3

Molecule: lysozyme: lysozyme from chicken egg white, representative basic protein
- factor of improvement of trapping efficiency (τon reduction), asymmetric vs symmetric electrolyte (M2 MspA [1]; +100 mV): 12
- mean ΔI/I0 (M2 MspA [1]; FIG. 80f: lysozyme + holo-myoglobin): 34.5%
- mean ΔI/I0 (M2 MspA [1]; [3]): 33.9%
- mean ΔI/I0 (M2 MspA [1]; FIG. 80h: lysozyme + holo-myoglobin + ACTR/NCBD complex): 34.5%
- mean ΔI/I0 (M2 MspA [1]; FIG. 80d: lysozyme only): 34.2%
- amplitude S.D., mean (M2 MspA [1]): 6.8 ± 0.3 PA
- current blockade ratio (ΔI/I0), mean (M2 MspA [1]): 34.4±0.15%
- current blockade ratio (ΔI/I0), mean (M2 MspA [1]; listed as LYSOZYME): 34.4 ± 0.15%
- mean ΔI/I0 (M2 MspA [1]; simultaneous sensing of lysozyme, myoglobin and ATCR/NCBD complex (FIG. 75), +100 mV): 32.9%
- true positive rate (TPR), bagged trees model (M2 MspA [2]): 100%

Molecule: C=CC1=C(C)c2cc3[n-]c(cc4[n-]c(cc5nc(cc1n2)C(C)=C5C=C)c(C)c4CCC(=O)O)c(CCC(=O)O)c3C.[Fe+2] [Heme, reference compound]
- nanopore events as the sole analyte (M2 MspA [1]; 0.2 μM in cis, +100 mV): No nanopore events were observed

B1: apo-myoglobin: heme-free myoglobin from equine skeletal muscle (protein, UniProt P68082 2-154, looked up)
Myoglobin: GLSDGEWQQVLNVWGKVEADIAGHGQEVLIRLFTGHPETLEKFDKFKHLKTEAEMKASEDLKKHGTVVLTALGGILKKKGHHEAELKPLAQSHATKHKIPIKYLEFISDAIIHVLHSKHPGDFGADAQGAMTKALELFRNDIAAKYKELGFQG
modifications: heme-free apo form
notes: heme-free myoglobin from equine skeletal muscle
- current blockade ratio (ΔI/I0), Step 1, mean (M2 MspA [1]; +100 mV): 51.3±0.2%
- current blockade ratio (ΔI/I0), Step 2, mean (M2 MspA [1]; +100 mV): 89.1±0.3%
- current blockade ratio (ΔI/I0), Step 1, mean (M2 MspA [1]; [4]): 51.3 ± 0.2%
- current blockade ratio (ΔI/I0), Step 2, mean (M2 MspA [1]; [4]): 89.1 ± 0.3%
- current blockade ratio (ΔI/I0), Step 1 (M2 MspA [1]; [5]): 51.5% and 51.3% and 51.1%
- current blockade ratio (ΔI/I0), Step 2 (M2 MspA [1]; [5]): 89.4% and 88.8% and 89.1%
- mean ΔI/I0 (M2 MspA [1]; [3]): 51.5%
- amplitude S.D., mean (M2 MspA [1]): 13.6±0.2 PA
- amplitude S.D., mean (M2 MspA [1]; listed as APO-MYOGLOBIN): 13.6 ± 0.2 PA
- ΔI/I0 (M2 MspA [1]; simultaneous sensing of apo-myoglobin ([…]) and holo-myoglobin (0.35 μM), FIG. 89): 50.9%
- mean Amplitude S.D. (M2 MspA [1]; simultaneous sensing of myoglobin and apo-myoglobin (FIG. 73), +100 mV): 13.5 pA
- true positive rate (TPR), bagged trees model (M2 MspA [2]): 99.9%

Source: patent US12613234B2, “Structural-profiling of analytes by nanopore trapping” (NANJING UNIVERSITY, priority 2021, dated 2026)
